Assay results as given in patent publication US20150252099A1 (TRELLIS BIOSCIENCE, published 2015).
Positions count from the first letter of the chain named. No constants are given. Whether binding was seen depends on the method and setting. Some results given as binding are weak or reduced against the parent protein; the word gives no strength.

Chains of the proteins cited; added tags and fusions are not shown. Residues count along the entry.
UniProt P06473, residues 32-906: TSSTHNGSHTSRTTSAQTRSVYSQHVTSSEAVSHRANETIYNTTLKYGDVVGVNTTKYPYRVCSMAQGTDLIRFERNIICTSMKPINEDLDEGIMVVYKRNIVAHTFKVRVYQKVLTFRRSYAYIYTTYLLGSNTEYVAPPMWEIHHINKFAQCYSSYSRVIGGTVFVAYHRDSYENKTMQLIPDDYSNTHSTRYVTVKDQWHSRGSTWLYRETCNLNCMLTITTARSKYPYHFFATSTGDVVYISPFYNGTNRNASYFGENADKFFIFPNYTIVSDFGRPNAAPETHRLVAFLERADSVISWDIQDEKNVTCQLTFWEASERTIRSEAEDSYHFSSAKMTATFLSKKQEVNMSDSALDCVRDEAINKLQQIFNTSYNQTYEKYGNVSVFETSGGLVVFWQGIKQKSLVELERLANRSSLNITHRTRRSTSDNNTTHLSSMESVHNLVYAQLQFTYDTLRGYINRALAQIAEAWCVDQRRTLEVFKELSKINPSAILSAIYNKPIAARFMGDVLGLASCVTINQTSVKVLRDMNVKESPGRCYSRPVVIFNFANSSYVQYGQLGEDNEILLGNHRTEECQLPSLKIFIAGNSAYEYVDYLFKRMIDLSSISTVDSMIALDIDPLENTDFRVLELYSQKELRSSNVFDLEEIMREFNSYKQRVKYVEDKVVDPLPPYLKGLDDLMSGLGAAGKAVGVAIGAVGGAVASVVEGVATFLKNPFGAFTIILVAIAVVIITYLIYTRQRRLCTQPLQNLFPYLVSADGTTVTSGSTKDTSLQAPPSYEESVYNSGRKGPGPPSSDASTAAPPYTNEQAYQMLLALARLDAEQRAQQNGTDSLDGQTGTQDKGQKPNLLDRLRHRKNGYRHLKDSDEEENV

B1: mAb 4A2 (antibody, V domains shown)
VH: QVLLEESGGGVVQPGRSLRLSCAGSGFTFNRHGIHWVRQAPGKGLEWVTVISSDGANQQYAESVKGRFIISRDNSKNTVYLEMNSLRNDDTGVYFCARDGRCEGERCYSGVTDFWGQGTLV
VL: EIVLTQSPATLSLSPGERATLSCRASQNIGGYLAWFQQKAGQAPRLLIYDASIRATGIPARFSGSGSGTDFTLTISSLEPEDFAVYYCQQRNSWPPLTFG
notes: Human mAb
B2: mAb 19B10 (antibody, V domains shown)
VH: QVQLQQSGPGLVKPSQTLSLTCTVSGGSISSGDFCWNWIRQPPGKGLEWIGYICYTGDTYYNPPLNSRVTISVDRSRNQISLRLSSVTAADTAVYYCAREDRRQLHSRPYFYYGLDVWGRGTKVTVSS
VL: EIVMTQSPLSLPVTPGETASISCRSSQSLLHSNGHNYLDWYLQKPGQSPHLLIYLGSIRASGVPDRFSGSGTGTDFTLKISRVEAEDVGVYYCMQALQTPNTFGQGTKLEIRR
notes: Human mAb
B3: MAB316 (antibody, V domains shown)
VH: QVQLVQSGGGVVQPGRSLTLSCAASGFTFSGFSLHWVRQAPGKGLQWVAVISFDGNHKHFADSLKGRFTISRDNSKNTLYLQINDLRGEDTAVYYCARDGRAVDGFSGILDFWGQGTLVSVSS
VL: EIVMTQSPATLSLSPGERATLSCRASQSVGRYLTWFQQKPGQAPRLLIYDASERATGVPARFSGSGSGTDFTLTISSLEPEDFAVYYCQQRSNWPPLTFGGGTKVEIK
B4: MAB338 (antibody, V domains shown)
VH: QVQLVESGGGVVQPGRSLRLSCSGSGFTFSDYNLHWVRQAPGKGLEWVAVISIDGTNKHHADSVKGRFTISRDNSKNTVNLEMSRLKAEDTAVYYCVRDGRSIGGYSGIFDPWGQGTLVTVSS
VL: B3 VL with M4L, G30D, T34A, F36Y, E53Q, V58I, T74A, F83V, V105I

Columns and labels:
[1] = target: CMV gB protein (strain AD169), purified (human cytomegalovirus (CMV), strain AD169) (UniProt P06473); assay: screening of cloned mAbs on recombinant gB
[2] = target: AD-2 peptide … (human cytomegalovirus (CMV)); assay: ELISA on the AD-2 peptide
[3] = target: CMV gB protein (strain AD169), purified (human cytomegalovirus (CMV), strain AD169) (UniProt P06473); assay: ELISA on purified gB protein
[4] = target: AD-2 peptide … (human cytomegalovirus (CMV)); assay: screening of cloned mAbs on the AD-2 peptide
[5] = target: CMV gB protein (strain AD169), purified (human cytomegalovirus (CMV), strain AD169) (UniProt P06473); assay: told with the gB binding kinetics (ForteBio biosensor); data not shown

Row | Binder | binding [1] | binding [2] | binding [3] | binding [4] | binding [5]
1 | B1 | binds | binds | binds | binds | –
2 | B2 | binds | – | binds | – | –
3 | B3 | – | – | – | – | binds
4 | B4 | – | – | – | – | binds
